# In the supplement of paper PMC8728848:
# The list shows a part of the results.
# B1: pTFF2 (Sus scrofa), P01359 (protein)
# chain: KPAACRCSRQDPKNRVNCGFPGITSDQCFTSGCCFDSQVPGVPWCFKPLPAQESEECVMEVSARKNCGYPGISPEDCAARNCCFSDTIPEVPWCFFPMSVEACHY
# How the values were obtained:
# Assay in all cases: glycan array binding signal (z-score within array); higher = stronger binding
# Settings in all cases: glycan notation: IUPAC condensed, linker removed
# Gal(a1-3)Gal(b1-4)GlcNAc = target: Gal(a1-3)Gal(b1-4)GlcNAc
# Summary of the method: (§1)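 Glycan array data were curated from 3228 arrays in the Consortium for Functional Glycomics database and kept only where the protein sequence was available. Glycan names were converted to IUPAC-condensed notation, and columns mapping to the same glycan were averaged. The binding signal is a within-array Z-score, averaged across arrays of the same protein sequence at different concentrations or buffers and across linkers. Negative Z-scores can be read as non-binding.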
# [1] = target: Gal(a1-3)Gal(b1-4)GlcNAc(b1-2)Man
# Summary of the method: as §1
# [2] = target: Gal(a1-3)Gal(b1-4)GlcNAc(b1-2)Man(a1-3)[Gal(a1-3)Gal(b1-4)GlcNAc(b1-2)Man(a1-6)]Man(b1-4)GlcNAc(b1-4)GlcNAc
# Summary of the method: as §1
# [3] = target: Gal(a1-3)Gal(b1-4)GlcNAc(b1-3)GalNAc
# Summary of the method: as §1
# [4] = target: Gal(a1-3)Gal(b1-4)GlcNAc(b1-6)GalNAc
# Summary of the method: as §1
# [5] = target: Gal(a1-3)Gal(b1-4)[Fuc(a1-3)]GlcNAc
# Summary of the method: as §1
# [6] = target: Gal(a1-3)Gal(b1-4)[Fuc(a1-3)]GlcNAc(b1-2)Man(a1-3)[Gal(a1-3)Gal(b1-4)[Fuc(a1-3)]GlcNAc(b1-2)Man(a1-6)]Man(b1-4)GlcNAc(b1-4)GlcNAc
# Summary of the method: as §1
# Gal(a1-3)GalNAc = target: Gal(a1-3)GalNAc
# Summary of the method: as §1
# [7] = target: Gal(a1-3)[Gal(a1-4)]Gal(b1-4)GlcNAc
# Summary of the method: as §1
# [8] = target: Gal(a1-4)Gal(b1-3)GlcNAc(b1-2)Man(a1-3)[Gal(a1-4)Gal(b1-3)GlcNAc(b1-2)Man(a1-6)]Man(b1-4)GlcNAc(b1-4)GlcNAc
# Summary of the method: as §1
# Gal(a1-4)Gal(b1-4)Glc = target: Gal(a1-4)Gal(b1-4)Glc
# Summary of the method: as §1
# Gal(a1-4)Gal(b1-4)GlcNAc = target: Gal(a1-4)Gal(b1-4)GlcNAc
# Summary of the method: as §1
# [9] = target: Gal(a1-4)Gal(b1-4)GlcNAc(b1-2)Man(a1-3)[Gal(a1-4)Gal(b1-4)GlcNAc(b1-2)Man(a1-6)]Man(b1-4)GlcNAc(b1-4)GlcNAc
# Summary of the method: as §1
# [10] = target: Gal(a1-4)Gal(b1-4)GlcNAc(b1-3)Gal(b1-4)Glc
# Summary of the method: as §1
# Gal(a1-4)GlcNAc = target: Gal(a1-4)GlcNAc
# Summary of the method: as §1
# Gal(a1-6)Glc = target: Gal(a1-6)Glc
# Summary of the method: as §1
# Gal(b1-2)Gal = target: Gal(b1-2)Gal
# Summary of the method: as §1
# Gal(b1-3)Gal = target: Gal(b1-3)Gal
# Summary of the method: as §1
# Gal(b1-3)Gal(b1-4)GlcNAc = target: Gal(b1-3)Gal(b1-4)GlcNAc
# Summary of the method: as §1
# Gal(b1-3)GalNAc = target: Gal(b1-3)GalNAc
# Summary of the method: as §1
# [11] = target: Gal(b1-3)GalNAc(a1-3)[Fuc(a1-2)]Gal(b1-4)Glc
# Summary of the method: as §1
# [12] = target: Gal(b1-3)GalNAc(a1-3)[Fuc(a1-2)]Gal(b1-4)GlcNAc
# Summary of the method: as §1
# Gal(b1-3)GalNAc(b1-3)Gal = target: Gal(b1-3)GalNAc(b1-3)Gal
# Summary of the method: as §1
# [13] = target: Gal(b1-3)GalNAc(b1-3)Gal(a1-4)Gal(b1-4)Glc
# Summary of the method: as §1
# [14] = target: Gal(b1-3)GalNAc(b1-4)Gal(b1-4)Glc
# Summary of the method: as §1
# [15] = target: Gal(b1-3)GalNAc(b1-4)[Neu5Ac(a2-3)]Gal(b1-4)Glc
# Summary of the method: as §1
# Gal(b1-3)GlcNAc = target: Gal(b1-3)GlcNAc
# Summary of the method: as §1
# [16] = target: Gal(b1-3)GlcNAc(a1-3)Gal(b1-4)GlcNAc
# Summary of the method: as §1
# [17] = target: Gal(b1-3)GlcNAc(a1-6)Gal(b1-4)GlcNAc
# Summary of the method: as §1
# Gal(b1-3)GlcNAc(b1-2)Man = target: Gal(b1-3)GlcNAc(b1-2)Man
# Summary of the method: as §1
# [18] = target: Gal(b1-3)GlcNAc(b1-2)Man(a1-3)[Gal(b1-3)GlcNAc(b1-2)Man(a1-6)]Man(b1-4)GlcNAc(b1-4)GlcNAc
# Summary of the method: as §1
# [19] = target: Gal(b1-3)GlcNAc(b1-2)Man(a1-3)[Gal(b1-3)GlcNAc(b1-2)Man(a1-6)]Man(b1-4)GlcNAc(b1-4)[Fuc(a1-6)]GlcNAc
# Summary of the method: as §1
# [20] = target: Gal(b1-3)GlcNAc(b1-2)Man(a1-3)[GlcNAc(b1-4)][Gal(b1-3)GlcNAc(b1-2)Man(a1-6)]Man(b1-4)GlcNAc(b1-4)GlcNAc
# Summary of the method: as §1
# [21] = target: Gal(b1-3)GlcNAc(b1-2)[Gal(b1-3)GlcNAc(b1-6)]Man(a1-6)[Gal(b1-3)GlcNAc(b1-2)Man(a1-3)]Man(b1-4)GlcNAc(b1-4)GlcNAc
# Summary of the method: as §1
# [22] = target: Gal(b1-3)GlcNAc(b1-3)Gal(b1-3)GlcNAc
# Summary of the method: as §1
# [23] = target: Gal(b1-3)GlcNAc(b1-3)Gal(b1-4)Glc
# Summary of the method: as §1
# [24] = target: Gal(b1-3)GlcNAc(b1-3)Gal(b1-4)GlcNAc
# Summary of the method: as §1
# [25] = target: Gal(b1-3)GlcNAc(b1-3)Gal(b1-4)GlcNAc(b1-2)Man(a1-3)[Gal(b1-3)GlcNAc(b1-3)Gal(b1-4)GlcNAc(b1-2)Man(a1-6)]Man(b1-4)GlcNAc(b1-4)GlcNAc
# Summary of the method: as §1
# [26] = target: Gal(b1-3)GlcNAc(b1-3)Gal(b1-4)GlcNAc(b1-2)[Gal(b1-3)GlcNAc(b1-3)Gal(b1-4)GlcNAc(b1-6)]Man(a1-6)[Gal(b1-3)GlcNAc(b1-3)Gal(b1-4)GlcNAc(b1-2)Man(a1-3)]Man(b1-4)GlcNAc(b1-4)[Fuc(a1-6)]GlcNAc
# Summary of the method: as §1
# [27] = target: Gal(b1-3)GlcNAc(b1-3)Gal(b1-4)GlcNAc(b1-3)Gal(b1-4)GlcNAc(b1-2)[Gal(b1-3)GlcNAc(b1-3)Gal(b1-4)GlcNAc(b1-3)Gal(b1-4)GlcNAc(b1-6)]Man(a1-6)[Gal(b1-3)GlcNAc(b1-3)Gal(b1-4)GlcNAc(b1-3)Gal(b1-4)GlcNAc(b1-2)Man(a1-3)]Man(b1-4)GlcNAc(b1-4)[Fuc(a1-6)]GlcNAc
# Summary of the method: as §1
# [28] = target: Gal(b1-3)GlcNAc(b1-3)Gal(b1-4)GlcNAc(b1-6)[Gal(b1-3)GlcNAc(b1-3)]Gal(b1-4)Glc
# Summary of the method: as §1
# [29] = target: Gal(b1-3)GlcNAc(b1-3)Gal(b1-4)[Fuc(a1-3)]GlcNAc
# Summary of the method: as §1
# [30] = target: Gal(b1-3)GlcNAc(b1-3)Gal(b1-4)[Fuc(a1-3)]GlcNAc(b1-6)[Gal(b1-3)GlcNAc(b1-3)]Gal(b1-4)Glc
# Summary of the method: as §1
# [31] = target: Gal(b1-3)GlcNAc(b1-3)GalNAc
# Summary of the method: as §1
# [32] = target: Gal(b1-3)GlcNAc(b1-6)Gal(b1-4)GlcNAc
# Summary of the method: as §1
binder,measurement,setting,value
B1,glycan array binding signal (z-score),Gal(a1-3)Gal(b1-4)GlcNAc,-0.198
same,glycan array binding signal (z-score),[1],-0.421
same,glycan array binding signal (z-score),[2],-0.027
same,glycan array binding signal (z-score),[3],0.196
same,glycan array binding signal (z-score),[4],0.352
same,glycan array binding signal (z-score),[5],0.264
same,glycan array binding signal (z-score),[6],-0.415
same,glycan array binding signal (z-score),Gal(a1-3)GalNAc,0.635
same,glycan array binding signal (z-score),[7],-0.421
same,glycan array binding signal (z-score),[8],-0.292
same,glycan array binding signal (z-score),Gal(a1-4)Gal(b1-4)Glc,1.71
same,glycan array binding signal (z-score),Gal(a1-4)Gal(b1-4)GlcNAc,0.805
same,glycan array binding signal (z-score),[9],2.45
same,glycan array binding signal (z-score),[10],1.02
same,glycan array binding signal (z-score),Gal(a1-4)GlcNAc,-1.17
same,glycan array binding signal (z-score),Gal(a1-6)Glc,-1.95
same,glycan array binding signal (z-score),Gal(b1-2)Gal,-1.31
same,glycan array binding signal (z-score),Gal(b1-3)Gal,-0.193
same,glycan array binding signal (z-score),Gal(b1-3)Gal(b1-4)GlcNAc,0.68
same,glycan array binding signal (z-score),Gal(b1-3)GalNAc,0.145
same,glycan array binding signal (z-score),[11],-0.167
same,glycan array binding signal (z-score),[12],-1.16
same,glycan array binding signal (z-score),Gal(b1-3)GalNAc(b1-3)Gal,2.98
same,glycan array binding signal (z-score),[13],-1.04
same,glycan array binding signal (z-score),[14],0.589
same,glycan array binding signal (z-score),[15],2.82
same,glycan array binding signal (z-score),Gal(b1-3)GlcNAc,-1.55
same,glycan array binding signal (z-score),[16],-0.446
same,glycan array binding signal (z-score),[17],0.028
same,glycan array binding signal (z-score),Gal(b1-3)GlcNAc(b1-2)Man,0.212
same,glycan array binding signal (z-score),[18],0.415
same,glycan array binding signal (z-score),[19],0.503
same,glycan array binding signal (z-score),[20],-0.675
same,glycan array binding signal (z-score),[21],0.458
same,glycan array binding signal (z-score),[22],-0.517
same,glycan array binding signal (z-score),[23],-0.393
same,glycan array binding signal (z-score),[24],-0.738
same,glycan array binding signal (z-score),[25],-0.672
same,glycan array binding signal (z-score),[26],-0.456
same,glycan array binding signal (z-score),[27],0.066
same,glycan array binding signal (z-score),[28],0.211
same,glycan array binding signal (z-score),[29],-1.04
same,glycan array binding signal (z-score),[30],0.457
same,glycan array binding signal (z-score),[31],-1.12
same,glycan array binding signal (z-score),[32],-1.61

# Not a retest: an excerpt of the list.
binder,measurement,setting,value
B1,glycan array binding signal (z-score),Gal(b1-3)Gal(b1-4)GlcNAc,0.68
same,glycan array binding signal (z-score),Gal(b1-3)GalNAc,0.145
same,glycan array binding signal (z-score),[11],-0.167
